Results: PubChem BioAssay AID1487 (National Center for Advancing Translational Sciences (NCATS), 2009)
The list shows a part of the results. The main result of the screen is listed elsewhere. These columns were measured beside it and carry no call. The list favours compounds with an active or inconclusive main result. The note in brackets gives the kind of curve behind each potency; many fits are weak.

Assay: qHTS Assay for Modulators of Lamin A Splicing
Conditions: HeLa LMNA splicing GFP/RFP minigene ratio, 48 h
Method in brief: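 S3 HeLa stable clones carrying a lamin A-EGFP splicing minigene plus DsRed2 were seeded at 600 cells/well in Opti-MEM with 2% FBS, pin-dosed and incubated 48 h at 37°C. Acumen cytometry (488 nm) gave the GFP/RFP total-intensity ratio.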

[1] = measured here: RFP viability control channel
[2] = measured here: GFP splicing reporter channel

Question: With O=C(Nc1nnc(SCc2ccc(F)cc2)s1)C1CC(=O)N(Cc2ccccc2)C1 (configuration not stated) as the compound, how does the AC50 [1] read?
Answer: 20 µM [rising, partial curve]

Question: For CCc1ccc(N2CCN(C(=O)c3ccc(OC)c(OC)c3)CC2)cc1, which AC50 [1] is on record?
Answer: 25.1 µM [rising, partial curve]

Question: Which AC50 [2] does the source give for O=C(CC(=O)c1ccccc1)Nc1cccnc1 here?
Answer: 0.158 µM [falling, full curve, poor fit]

Question: Which results are given for CCCn1c(CCC(=O)O)ccc1-c1ccc(OC)cc1?
Answer: AC50 [2]: 15.8 µM [rising, partial curve, poor fit]; AC50 [1]: 10 µM [rising, partial curve, poor fit]

Question: For O=C(NCc1cccc(Cl)c1)c1ccc2c(c1)nc1n2CCOC1, which AC50 [2] is on record?
Answer: 20 µM [rising, partial curve]

Question: What about the AC50 [1] of the same compound?
Answer: 35.5 µM [rising, single point]

Question: For O=C(C1COc2cc(S(=O)(=O)Nc3ccc(Cl)cc3)ccc2O1)N1CCCC1 (configuration not stated), which AC50 [1] is on record?
Answer: 0.00447 µM [falling, full curve, poor fit]

Question: Which results are given for C/C(CCc1oc2ccc(Br)cc2c1-c1ccc(C)o1)=N/O?
Answer: AC50 [2]: 12.6 µM [rising, partial curve, poor fit]; AC50 [1]: 20 µM [rising, partial curve]

Question: Which AC50 [2] does the source give for CC(NC(=O)CCC(=O)NC(C)C1COc2ccccc2O1)C1COc2ccccc2O1 (configuration not stated) here?
Answer: 7.08 µM [rising, full curve, poor fit]

Question: What about the AC50 [1] of the same compound?
Answer: 11.2 µM [rising, partial curve]

Question: For COc1ccc(C(=O)C2CCCN(S(=O)(=O)C(C)C)C2)c(C)c1 (configuration not stated), which AC50 [1] is on record?
Answer: 1.58 µM [falling, partial curve]

Question: Which AC50 [2] does the source give for COc1ccccc1N1CCN(C(=O)CSc2nc(C)c(Cc3ccccc3)c(=O)[nH]2)CC1 here?
Answer: 12.6 µM [rising, partial curve, poor fit]

Question: And the AC50 [1]?
Answer: 11.2 µM [rising, partial curve]

Question: Which AC50 [1] does the source give for COc1cc(C2C(C(=O)Nc3ccccc3)=C(C)Nc3nc(SCC(=O)c4ccc(C)cc4)nn32)ccc1O (configuration not stated) here?
Answer: 6.31 µM [falling, partial curve, poor fit]

Question: Which AC50 [2] does the source give for O=C(CSc1nnnn1-c1ccc2c(c1)CCC2)Nc1ccc2c(c1)OCCO2 here?
Answer: 35.5 µM [rising, single point]

Question: What about the AC50 [1] of the same compound?
Answer: 31.6 µM [rising, single point]

Question: For Cc1ccc(NC(=O)C2CCN(S(=O)(=O)c3c(C)noc3/C=C/c3ccco3)CC2)nc1, which AC50 [1] is on record?
Answer: 14.1 µM [rising, partial curve]

Question: With CCCC(=O)O[C@]1(C(=O)COC(C)=O)CC[C@H]2[C@@H]3C[C@H](F)C4=CC(=O)C=C[C@]4(C)[C@@]3(F)[C@@H](O)C[C@@]21C as the compound, how does the AC50 [1] read?
Answer: 0.562 µM [rising, full curve]

Question: With COc1cccc(CN(C)CC(=O)NCc2ccccc2Cl)c1 as the compound, how does the AC50 [2] read?
Answer: 0.0224 µM [falling, full curve, poor fit]

Question: With COCCn1c(=O)c(CCc2ccccc2)nc2cnc(Oc3ccc(OC)cc3)nc21 as the compound, how does the AC50 [2] read?
Answer: 17.8 µM [falling, single point]

Question: Which AC50 [1] does the source give for CCNNC(=O)C(O)(c1cccc(C)c1)c1cccc(C)c1 here?
Answer: 15.8 µM [rising, partial curve, poor fit]

Question: For CCOC(=O)c1sc(N=NC2=C(O)CC(C)(C)CC2=O)c(C(=O)OCC)c1C, which AC50 [2] is on record?
Answer: 1 µM [rising, partial curve]

Question: Which AC50 [2] does the source give for O=C(CCc1nnc(CCCCc2ccccc2)o1)NCc1cccc(F)c1 here?
Answer: 0.0224 µM [rising, full curve, poor fit]

Question: Which AC50 [2] does the source give for CC(C)(C)c1ccc(C(=O)Nc2ccc3nc(SCC(=O)N4CCCC4)sc3c2)cc1 here?
Answer: 10 µM [falling, partial curve, poor fit]

Question: With O=c1cc(CN2CCN(c3ccccc3)CC2)c2c(ccc3ccccc32)o1 as the compound, how does the AC50 [2] read?
Answer: 25.1 µM [rising, single point]

Question: For O=C(O)CCCNC(=O)c1cccc(C(=O)NCCCC(=O)O)n1, which AC50 [1] is on record?
Answer: 11.2 µM [rising, partial curve]

Question: For COc1ccc(NC(=O)CSc2nc(O)cc(=O)n2-c2ccccc2OC)cc1, which AC50 [2] is on record?
Answer: 0.178 µM [falling, full curve, poor fit]

Question: What about the AC50 [1] of the same compound?
Answer: 0.00447 µM [falling, full curve, poor fit]

Question: Which AC50 [2] does the source give for Cc1nc(Nc2ccc3c(c2)OCCO3)c2nnn(Cc3ccccc3Cl)c2n1 here?
Answer: 35.5 µM [rising, single point]

Question: And the AC50 [1]?
Answer: 35.5 µM [rising, single point]

Question: With CCc1ccc(S(=O)(=O)Nc2c(C)nn(C)c2C)cc1 as the compound, how does the AC50 [2] read?
Answer: 10 µM [rising, partial curve]

Question: And the AC50 [1]?
Answer: 10 µM [rising, partial curve]

Question: For CCOC(=O)c1ccc(NC(=O)CSc2nc3cccnc3n2C)cc1, which AC50 [1] is on record?
Answer: 25.1 µM [rising, partial curve]

Question: With c1ccc(CNc2nc(-c3ccoc3)nc3ccccc23)cc1 as the compound, how does the AC50 [2] read?
Answer: 15.8 µM [falling, partial curve, poor fit]

Question: And the AC50 [1]?
Answer: 20 µM [falling, partial curve, poor fit]

Question: Which AC50 [1] does the source give for CC(C)C(C(=O)NC1=NCCS1)c1ccc(Cl)cc1 (configuration not stated) here?
Answer: 12.6 µM [rising, partial curve]

Question: For COC(=O)/C(=N\Nc1ccccc1)Sc1nnc(-c2ccc(OC)cc2)n1C, which AC50 [1] is on record?
Answer: 35.5 µM [rising, single point]

Question: With COC(=O)C1=C(C)N(C)C(=S)NC1c1ccc(Cl)cc1 (configuration not stated) as the compound, how does the AC50 [1] read?
Answer: 0.00447 µM [falling, full curve, poor fit]

Question: Which AC50 [1] does the source give for COc1ccc(-c2nc3oc4cc(OC)ccc4c(=O)c3c(=O)n2Cc2ccco2)cc1 here?
Answer: 35.5 µM [rising, single point]

Question: Which AC50 [1] does the source give for CC(=O)N1CCc2c(sc(NC(=O)c3ccc([N+](=O)[O-])o3)c2C#N)C1 here?
Answer: 22.4 µM [falling, single point]

Question: For O=C1NC2c3ccccc3C(=O)N2c2c1cnn2-c1ccccc1 (configuration not stated), which AC50 [1] is on record?
Answer: 17.8 µM [rising, single point]

Question: Which AC50 [2] does the source give for Cc1ccc(OCC(=O)NNc2c3ccccc3nc3ccccc23)cc1 here?
Answer: 35.5 µM [falling, single point]

Question: And the AC50 [1]?
Answer: 3.98 µM [rising, single point]

Question: With CCOC(=O)/C=C/C(=O)Nc1nccs1 as the compound, how does the AC50 [2] read?
Answer: 35.5 µM [falling, single point]

Question: What about the AC50 [1] of the same compound?
Answer: 35.5 µM [falling, single point]
